## Small-molecule microarray binding calls

Targets (5′ to 3′):
PreQ1: PreQ1 riboswitch RNA pseudoknot, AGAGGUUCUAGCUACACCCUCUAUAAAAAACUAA. From B. subtilis. About 170 hits among about 24,000 compounds.
TPP: TPP riboswitch RNA three-way junction, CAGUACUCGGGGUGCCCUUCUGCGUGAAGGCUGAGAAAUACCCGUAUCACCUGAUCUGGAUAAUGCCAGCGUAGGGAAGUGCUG. About 160 hits among about 24,000 compounds.
SAM-II: SAM-II riboswitch RNA pseudoknot, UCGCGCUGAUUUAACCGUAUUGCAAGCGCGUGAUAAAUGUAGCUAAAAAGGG. About 200 hits among about 21,000 compounds.

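Each compound is printed as two spots on a slide made to bind it covalently, so it has no test concentration; the read-out is fluorescence of the bound, labelled oligonucleotide. The data file lists only calls. An earlier report of the laboratory on the PreQ1, TPP and SAM-II riboswitches (doi:10.1038/s41467-019-09493-3) used 1 µM RNA for 2 h and required a mean Z-score above 3 (spot signal-to-noise against the whole library), a score well above that on a control array, and duplicate spots agreeing (coefficient of variation under 100); it then also set aside compounds that hit other targets, which this list keeps. The cut-offs behind this list may differ. These are primary screening calls, not affinities; a compound without a hit may have attached poorly or may still bind in solution.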
A compound is marked 1 if it was called a hit and 0 if it was screened but was not.
This is an unselected part of the compounds tested.
A target missing from an entry has no call listed here.
A dash means that no call is listed here.

SMILES,PreQ1,TPP,SAM-II
NCCc1cc(N2CCC(N3CCC(O)CC3)CC2)ncn1,0,0,0
CC(C)CC(=O)NC(Nc1ccccc1F)C(Cl)(Cl)Cl (centres undefined),0,0,0
COc1ccccc1CNc1ccc(Br)cn1,0,0,0
CCOC(=O)c1cc2cc(N)ccc2s1,0,0,0
CC(C)(NC(=O)c1ccc2c(c1)OCC(=O)N2)c1nnc(N)s1,0,0,0
N#Cc1c(O)c2c(-c3ccc(-c4ccccc4O)cc3)csc2[nH]c1=O,0,0,0
O=C1c2cccc3c(Br)ccc(c23)C(=O)N1CCO,0,0,0
NCCc1nnc(SCc2c(Cl)cccc2Cl)o1,1,0,0
O=C(O)c1cc(Nc2nc3ccccc3n3cnnc23)ccc1N1CCOCC1,0,0,0
Cc1nc(C(C)C)sc1C(=O)N1CCCN([C@H]2COC[C@@H]2O)CC1,0,0,0
CCOc1ccc([C@H]2C[C@@H](c3cccc(OC)c3)Nc3nc(N)nn32)cc1,0,0,0
OCc1nc2ccccc2n1Cc1ccccc1F,0,0,-
CCn1ncc(C(=O)N2CCN(Cc3ccoc3)C(CCO)C2)c1C (centres undefined),0,0,0
S=c1ncc2[nH]c(=S)[nH]c2[nH]1,0,0,0
CCOC(=O)c1ccc(NCN2C(=O)CSC2=NS(=O)(=O)c2ccc(C)cc2)cc1,0,0,0
O=C(c1ccc(F)c(F)c1)C1CCN(CC2(O)CCCNC2)CC1 (centres undefined),0,0,0
CCNC1(C(N)=O)CCN(c2ncnc3c2nc(-c2ccccc2Cl)n3-c2ccc(Cl)cc2)CC1,0,0,0
COc1ccc(Cc2nnc(SC)n2-c2ccc(F)cc2)cc1OC,0,0,0
CN(CCC#N)c1ccc(/C=C(\C#N)c2cccc(C(F)(F)F)c2)cc1,0,0,0
c1nc(-c2cn(CCC3CCCCN3)nn2)n(C2CCCCC2)n1 (centres undefined),0,0,0
N#CC1=C(N)Oc2[nH]nc(-c3ccc(Cl)cc3)c2C1c1ccc(F)cc1 (centres undefined),0,0,0
Cc1nc2ccc(CCO)cc2s1,0,0,0
CO[C@H]1/C=C\O[C@@]2(C)Oc3c(C)c(O)c4c(c3C2=O)C2=NC3(CCN(CC(C)C)CC3)NC2=C(NC(=O)/C(C)=C\C=C/[C@H](C)[C@H](O)[C@@H](C)[C@@H](O)[C@@H](C)[C@H](OC(C)=O)[C@H]1C)C4=O,0,0,0
N[C@H]1CN(C(=O)CCCc2nc(-c3ccncc3)no2)C[C@@H]1c1ccccc1,0,0,0
CC(NCCC1(c2ccccc2)CCOC(C)(C)C1)c1ccccc1 (centres undefined),0,0,-
O=C(CCCN1CCOCC1)N1CCN(CCO)[C@@H]2CS(=O)(=O)C[C@@H]21,0,0,0
O=C1CCCN1CCCNc1nc(-c2ccncc2)nc2c1CCNC2,0,0,0
C=CCOc1ccnc(-c2ccccc2)n1,0,0,0
Nc1nnc(CCNC2CSCCSC2)s1,0,0,0
OCc1nc2ccccc2n1CCOc1ccc(Cl)cc1,0,0,-
OCCn1c(-c2ccc(Br)cc2)cn2c3ccccc3nc12,0,0,0
CC(C)O[C@H]1CN(c2nccc(CCC(F)(F)F)n2)C[C@@H]1O,0,0,0
CC(C)C[C@@H](C(=O)N[C@H](C(=O)OC1CCCC1)c1ccccc1)[C@H](O)C(=O)NO,0,0,0
O=S1(=O)C[C@H](NCc2ccccn2)[C@@H](S(=O)(=O)c2ccccc2)C1,0,0,-
Cc1nc(-c2cc3cccc(C)c3nc2NCc2cc(F)cc(F)c2)no1,0,0,-
CCCCSc1nc(N)cc(N2CCc3c(c(C(N)=O)nn3C)C2)n1,0,0,0
COc1ccccc1-n1nnc(-c2nc(-c3ccc(Br)cc3)no2)c1N,0,0,-
CCc1ccc([C@H]2C[C@@H](c3ccc(OC)cc3)Nc3nc(N)nn32)cc1,0,0,0
Cc1nn(CCO)cc1CN1CCC(Oc2cccc(F)c2)CC1,0,0,0
CCOc1ccc(C2C(C#N)=C(N)Oc3c2ccc(=O)c2c(C)oc(C)c32)cc1 (centres undefined),0,0,0
CCN(CC)c1ccc(CNc2ccc(Br)cn2)cc1,0,0,0
NNc1ncc(F)c(N)n1,0,0,0
CCN(CC(O)COc1ccc2ccccc2c1)S(=O)(=O)[O-].[K+] (centres undefined),0,0,0
CCOC(=O)c1cnc2c(C)cc(C)cc2c1Nc1cccc(C(=O)O)c1,0,0,0
Cc1cc2c(c(=O)o1)C(c1ccsc1)C(C#N)=C(N)O2 (centres undefined),0,0,0
Cc1ncc(CO)c(CN(C)C2CCCN(CCc3ccccc3)C2)c1O (centres undefined),0,0,0
Clc1ccc(-c2noc3ncnc(NCC4CCCO4)c23)cc1 (centres undefined),0,0,0
CCCCn1c(=N)n(CC(O)c2ccccc2)c2ccccc21 (centres undefined),0,0,0
O=C1NC(=O)C(c2cnc3ccccn23)=C1c1cn2c3c(cccc13)CN(C(=O)N1CCOCC1)CC2,0,0,0
CN(C)CCNC(=O)c1cc2n(n1)CCN(C(=O)C1CCCNCC1)C2 (centres undefined),0,0,0
CCOC(=O)c1cnc2ccc(C)cc2c1NCC(C)O (centres undefined),0,0,0
Cc1nnsc1CN(C)C(=O)[C@H](N)CC(C)C,0,0,0
Cc1ccc2c(c1)c(C)c(C)n2CC(O)CN1CCCCC1C (centres undefined),0,0,0
CC(Cn1cncn1)NCc1ccc(C(=O)N2CCCC2)cc1 (centres undefined),0,0,0
CCc1n[nH]c(SCC(=O)NCCNc2cccnc2)n1,0,0,0
Cc1c(S(=O)(=O)c2ccc(Cl)cc2)c(N)n(CC2CC2)c1C,0,0,0
O=C(N[C@@H]1CCN(Cc2ccc3cccc(F)c3n2)C[C@H]1O)c1ccncc1,0,0,0

6 of the entries, repeated:

{"smiles": "Cc1nc(C(C)C)sc1C(=O)N1CCCN([C@H]2COC[C@@H]2O)CC1", "PreQ1": "0", "TPP": "0", "SAM-II": "0"}
{"smiles": "O=C1NC(=O)C(c2cnc3ccccn23)=C1c1cn2c3c(cccc13)CN(C(=O)N1CCOCC1)CC2", "PreQ1": "0", "TPP": "0", "SAM-II": "0"}
{"smiles": "CCc1n[nH]c(SCC(=O)NCCNc2cccnc2)n1", "PreQ1": "0", "TPP": "0", "SAM-II": "0"}
{"smiles": "O=C(c1ccc(F)c(F)c1)C1CCN(CC2(O)CCCNC2)CC1", "stereo": "centres undefined", "PreQ1": "0", "TPP": "0", "SAM-II": "0"}
{"smiles": "CCOC(=O)c1cnc2ccc(C)cc2c1NCC(C)O", "stereo": "centres undefined", "PreQ1": "0", "TPP": "0", "SAM-II": "0"}
{"smiles": "CO[C@H]1/C=C\\O[C@@]2(C)Oc3c(C)c(O)c4c(c3C2=O)C2=NC3(CCN(CC(C)C)CC3)NC2=C(NC(=O)/C(C)=C\\C=C/[C@H](C)[C@H](O)[C@@H](C)[C@@H](O)[C@@H](C)[C@H](OC(C)=O)[C@H]1C)C4=O", "PreQ1": "0", "TPP": "0", "SAM-II": "0"}

Calls as published in the ROBIN set (doi:10.1002/anie.202211358).